Results are given in words; binding and its absence hold for the method and conditions named. In cells and extracts the contact can be indirect. Some entries that bind do so weakly or less than the wild type. Sequences can lack the tags named with a protein.
Target: T1, cytoskeletal associated protein Palladin (PALLD) (human (endogenous in the paper's human pancreatic cell lines; line not stated for this experiment)) (UniProt Q8WX93)
T1 sequence: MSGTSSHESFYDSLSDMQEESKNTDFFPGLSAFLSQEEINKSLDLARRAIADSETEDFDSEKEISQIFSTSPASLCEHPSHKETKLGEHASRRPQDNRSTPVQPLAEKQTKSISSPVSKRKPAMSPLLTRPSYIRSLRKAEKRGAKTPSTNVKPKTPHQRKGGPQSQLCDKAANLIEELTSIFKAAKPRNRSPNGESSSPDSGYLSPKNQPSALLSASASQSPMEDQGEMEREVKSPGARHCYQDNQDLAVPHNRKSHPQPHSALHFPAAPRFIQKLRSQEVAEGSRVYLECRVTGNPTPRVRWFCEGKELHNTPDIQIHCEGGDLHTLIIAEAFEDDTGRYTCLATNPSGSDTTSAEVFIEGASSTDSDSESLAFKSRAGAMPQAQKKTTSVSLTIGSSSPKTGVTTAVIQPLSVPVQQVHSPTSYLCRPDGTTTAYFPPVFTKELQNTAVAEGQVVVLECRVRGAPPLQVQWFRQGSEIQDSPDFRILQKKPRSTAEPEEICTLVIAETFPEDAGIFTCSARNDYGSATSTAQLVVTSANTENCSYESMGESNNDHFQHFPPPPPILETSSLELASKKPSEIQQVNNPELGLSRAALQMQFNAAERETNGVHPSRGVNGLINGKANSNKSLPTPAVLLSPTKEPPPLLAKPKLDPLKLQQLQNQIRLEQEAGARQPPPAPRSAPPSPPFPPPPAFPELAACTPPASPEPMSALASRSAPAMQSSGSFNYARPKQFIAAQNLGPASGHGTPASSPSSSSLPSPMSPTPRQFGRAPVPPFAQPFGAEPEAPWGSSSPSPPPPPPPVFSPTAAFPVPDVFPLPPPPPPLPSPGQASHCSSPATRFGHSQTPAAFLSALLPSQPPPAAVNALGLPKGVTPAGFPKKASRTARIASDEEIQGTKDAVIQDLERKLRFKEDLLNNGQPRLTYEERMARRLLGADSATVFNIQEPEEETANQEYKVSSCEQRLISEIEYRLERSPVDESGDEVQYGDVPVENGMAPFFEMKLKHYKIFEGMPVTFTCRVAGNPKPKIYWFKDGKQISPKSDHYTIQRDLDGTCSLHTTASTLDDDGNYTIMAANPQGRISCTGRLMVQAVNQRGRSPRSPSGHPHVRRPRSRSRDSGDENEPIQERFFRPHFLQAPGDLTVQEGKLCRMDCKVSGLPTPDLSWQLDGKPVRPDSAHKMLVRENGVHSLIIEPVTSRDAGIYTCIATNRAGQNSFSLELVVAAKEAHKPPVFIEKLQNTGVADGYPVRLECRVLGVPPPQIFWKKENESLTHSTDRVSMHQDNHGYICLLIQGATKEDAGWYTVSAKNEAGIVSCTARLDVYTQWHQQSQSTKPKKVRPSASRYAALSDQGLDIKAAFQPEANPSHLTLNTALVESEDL
Test: co-IP; immunoprecipitate analysed by western blot (Figure 6J); which protein was precipitated and which cells were used is not told

Protein sequences, listed by entry. Tags and fused reporters are not part of them.
UniProt P46940: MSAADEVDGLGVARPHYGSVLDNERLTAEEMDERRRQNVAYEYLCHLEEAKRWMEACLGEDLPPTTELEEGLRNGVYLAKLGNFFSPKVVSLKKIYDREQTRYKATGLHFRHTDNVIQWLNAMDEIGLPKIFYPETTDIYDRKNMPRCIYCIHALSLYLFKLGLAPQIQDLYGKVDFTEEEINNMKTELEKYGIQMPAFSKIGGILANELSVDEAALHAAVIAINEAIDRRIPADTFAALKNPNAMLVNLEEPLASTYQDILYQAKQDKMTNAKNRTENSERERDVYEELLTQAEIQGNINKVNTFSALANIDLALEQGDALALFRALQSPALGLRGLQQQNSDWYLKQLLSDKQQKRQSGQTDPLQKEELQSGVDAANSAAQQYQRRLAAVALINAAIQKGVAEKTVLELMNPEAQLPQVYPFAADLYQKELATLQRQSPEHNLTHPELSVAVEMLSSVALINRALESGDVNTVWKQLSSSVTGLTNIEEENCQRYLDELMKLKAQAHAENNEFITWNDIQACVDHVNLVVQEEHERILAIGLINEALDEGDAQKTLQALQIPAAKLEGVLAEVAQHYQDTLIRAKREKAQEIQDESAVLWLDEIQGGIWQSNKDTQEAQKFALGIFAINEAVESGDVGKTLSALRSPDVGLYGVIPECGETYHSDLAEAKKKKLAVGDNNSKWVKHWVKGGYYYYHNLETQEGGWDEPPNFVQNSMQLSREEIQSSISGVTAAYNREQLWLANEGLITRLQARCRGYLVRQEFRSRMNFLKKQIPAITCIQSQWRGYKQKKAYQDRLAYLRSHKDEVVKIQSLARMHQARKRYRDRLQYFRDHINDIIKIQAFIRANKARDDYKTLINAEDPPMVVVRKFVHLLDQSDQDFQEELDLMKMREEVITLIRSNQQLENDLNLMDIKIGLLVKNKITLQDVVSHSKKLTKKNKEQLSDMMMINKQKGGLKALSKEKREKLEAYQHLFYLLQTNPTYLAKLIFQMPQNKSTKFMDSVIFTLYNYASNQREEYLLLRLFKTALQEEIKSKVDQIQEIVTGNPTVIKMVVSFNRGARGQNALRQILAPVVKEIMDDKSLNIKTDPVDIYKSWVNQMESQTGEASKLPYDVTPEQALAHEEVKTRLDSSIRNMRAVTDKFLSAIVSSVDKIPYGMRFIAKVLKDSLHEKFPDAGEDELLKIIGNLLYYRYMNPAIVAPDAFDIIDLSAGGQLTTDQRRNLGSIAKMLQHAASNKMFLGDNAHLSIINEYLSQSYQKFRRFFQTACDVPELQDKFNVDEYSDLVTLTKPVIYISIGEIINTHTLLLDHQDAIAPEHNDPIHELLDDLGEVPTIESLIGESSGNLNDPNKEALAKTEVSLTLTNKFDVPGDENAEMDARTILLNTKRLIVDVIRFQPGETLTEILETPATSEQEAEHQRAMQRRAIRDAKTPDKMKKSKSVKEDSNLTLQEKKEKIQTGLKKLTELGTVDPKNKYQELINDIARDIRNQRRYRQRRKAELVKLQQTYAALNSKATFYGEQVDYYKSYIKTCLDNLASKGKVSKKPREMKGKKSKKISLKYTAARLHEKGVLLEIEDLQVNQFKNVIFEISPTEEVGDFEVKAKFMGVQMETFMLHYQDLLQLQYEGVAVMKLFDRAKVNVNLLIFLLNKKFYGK

IQ motif containing GTPase-activating protein 1 (IQGAP1) (from UniProt P46940 1-1657)
binding: binds
